Binding data for two molecules are collected here from publication PMC4019985, “Mitochondrial thiol oxidase Erv1: both shuttle cysteine residues are required for its function with distinct roles” (Biochemical Journal, 2014).

Where a chain is given by its changes, count along the chain named. These are yes or no findings as the source states them, for the method shown.

In test [1] the target is T1, Mia40^SPC, core domain Mia40c (amino acids 284-403) with the first cysteine of the CPC motif changed to serine (S. cerevisiae) (UniProt P36046).
T1 sequence: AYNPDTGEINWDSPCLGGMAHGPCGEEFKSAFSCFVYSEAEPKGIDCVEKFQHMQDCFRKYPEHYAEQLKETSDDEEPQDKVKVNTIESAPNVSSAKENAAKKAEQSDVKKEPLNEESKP
Description: condition: only under reducing conditions (sample buffer with 1 mM DTT); mixed disulfide trapping, non-reducing SDS/PAGE and Western blot; single cysteine mutants pre-treated with 2 mM TCEP, exchanged to buffer A, incubated at 5 uM each for 20 min at room temperature (stopped with 2.5 mM AMS, or 1 mM DTT as reducing control), or 50 uM Mia40 and 5 uM Erv1 over 10 min (stopped with 20 mM IAM); detected with an antibody against Erv1; both purified.

Test [2] has as its target T2, Mia40^CPS, core domain Mia40c (amino acids 284-403) with the second cysteine of the CPC motif changed to serine (S. cerevisiae) (UniProt P36046).
T2 sequence: T1 sequence with S13C, C15S
The description is as above.

B1: Erv1^CXXS (Erv1C33S) (enzyme, S. cerevisiae, UniProt P27882 1-189, looked up)
chain: MKAIDKMTDNPPQEGLSGRKIIYDEDGKPCRSSNTLLDFQYVTGKISNGLKNLSSNGKLAGTGALTGEASELMPGSRTYRKVDPPDVEQLGRSSWTLLHSVAASYPAQPTDQQKGEMKQFLNIFSHIYPCNWCAKDFEKYIRENAPQVESREELGRWMCEAHNKVNKKLRKPKFDCNFWEKRWKDGWDE
notes: Erv1, S. cerevisiae, full length, second shuttle cysteine changed to serine
B1: the binding result in test [1] and in test [2] was “no binding” in each case.

B2: Erv1^SXXC (Erv1C30S) (enzyme, S. cerevisiae, UniProt P27882 1-189, looked up)
chain: B1 chain with C30S, S33C
notes: Erv1, S. cerevisiae, full length, first shuttle cysteine changed to serine; Found as a tetramer (peak 1, yellow) and a dimer (peak 2, black, charge-transfer complex)
In the case of B2, the binding result in test [1] and in test [2] was “no binding” throughout.
